These are yes or no findings as the source states them, for the method shown. Some entries that bind do so weakly or less than the wild type.
Target: T1, beta-2-glycoprotein I (β2GPI) (human), P02749
T1 chain: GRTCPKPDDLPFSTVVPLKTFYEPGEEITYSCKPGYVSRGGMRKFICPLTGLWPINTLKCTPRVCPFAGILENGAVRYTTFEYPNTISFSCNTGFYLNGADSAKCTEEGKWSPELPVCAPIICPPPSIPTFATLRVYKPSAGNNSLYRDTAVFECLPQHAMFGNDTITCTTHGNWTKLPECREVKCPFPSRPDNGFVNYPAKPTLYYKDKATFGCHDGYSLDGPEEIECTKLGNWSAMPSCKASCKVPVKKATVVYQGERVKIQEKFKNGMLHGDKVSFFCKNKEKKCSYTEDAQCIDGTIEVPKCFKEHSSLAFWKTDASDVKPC
Experiment: SDS-PAGE; 12.5% SDS-PAGE of Heparin-Sepharose fractions of pooled human plasma stored at -80°C for three to five years; dimer-rich and monomer-rich aliquots identified on the gel; both purified
Settings: remark: other sources report otherwise

binding: binds
B1: beta-2-glycoprotein I (β2GPI), P02749 20-345 (protein)
chain: GRTCPKPDDLPFSTVVPLKTFYEPGEEITYSCKPGYVSRGGMRKFICPLTGLWPINTLKCTPRVCPFAGILENGAVRYTTFEYPNTISFSCNTGFYLNGADSAKCTEEGKWSPELPVCAPIICPPPSIPTFATLRVYKPSAGNNSLYRDTAVFECLPQHAMFGNDTITCTTHGNWTKLPECREVKCPFPSRPDNGFVNYPAKPTLYYKDKATFGCHDGYSLDGPEEIECTKLGNWSAMPSCKASCKVPVKKATVVYQGERVKIQEKFKNGMLHGDKVSFFCKNKEKKCSYTEDAQCIDGTIEVPKCFKEHSSLAFWKTDASDVKPC

— publication PMC7812911
